## Library screening results

Measurements from “University of Dundee, Small-Polar-MMV Screening Library” (2021), ChEMBL document CHEMBL3988442.

Each number is a percent effect as filed. How 0% and 100% were set is not recorded. Most values in the screen are low, and negative values occur. Compounds were drawn at random from those tested, without regard to their results. Two or more numbers in one place are separate tests of the same structure; such repeats can differ widely.

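Viability assay of Plasmodium falciparum sporozoites; the read-out is not stated. The concentration is filed as 10 mM, unlikely as a test dose, so the dose is not known. The record gives no direction; compounds that gave an IC50 in retests scored well above the rest, so higher reads as lower viability. Strong results were mostly tested again. About 34,000 compounds were tested under these conditions; 0.84% (about 280) showed 50% or more at least once.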

| # | Compound | percent effect |
|---|---|---|
| 1 | `CC(C)(C)OC(=O)NC1(c2noc(-c3ccoc3)n2)CCC1` | -15.68% |
| 2 | `CCc1c(C(=O)N2CCC(CC(N)=O)CC2)cnn1C(C)(C)C` | 25.4% |
| 3 | `Cc1nc(N2CCCC2)nc2c1CN(C(=O)NC(C)C)CC2` | 4.513% |
| 4 | `Cc1cnc(CN2CCN(C(C)c3nc(C)no3)CC2)cn1` (stereo not given) | -21.03% |
| 5 | `O=C(O)CCNC(=O)N1CCc2c([nH]c3ccc(Cl)cc23)C1` | -34.22% & -28.29% |
| 6 | `[H][C@@]12C[C@@H](c3nc(C)no3)O[C@]1([H])CN(S(=O)(=O)c1cccc(C)c1)C2` | 5.736% |
| 7 | `CCn1c(C)cc(C(=O)N2C[C@@H](C(=O)O)[C@H](c3ccccc3)C2)c1C` | -4.63% & -0.302% |
| 8 | `CCC[C@@H]1CN(C(=O)c2c(F)ccc(OC)c2F)C[C@H]1C(=O)O` | -22.45% |
| 9 | `Clc1ccccc1-c1nc(CNC2CCc3ncnn3C2)cs1` (stereo not given) | -4.831% |
| 10 | `O=C(N1CCOCC1)N1CCc2ncnc(NC3CC3)c2CC1` | 11.95% |
| 11 | `[H][C@]12CC[C@]([H])(C1)[C@H](NC(=O)COc1cccc(NC(=O)CC)c1)C2` | 6.804% |
| 12 | `CCc1nc(C2CCCN2C(=O)CCn2cncn2)no1` (stereo not given) | -17.96% |
| 13 | `COCCN(C)c1ccc(NCc2cccnc2)nc1` | 21.13% & 22.11% |
| 14 | `O=C(C1CCS(=O)(=O)C1)N1CCN(c2cnccn2)CC1` (stereo not given) | -8.438% |
| 15 | `O=C(Nc1cccc(F)c1)C1CCCN1c1nccs1` (stereo not given) | 17.55% |
| 16 | `Cc1nc(CN2CCC(N(C)Cc3noc(C4CC4)n3)C2)oc1C` (stereo not given) | -3.733% |
| 17 | `O=C(O)C(F)(F)F.[H][C@@]12CCN(Cc3ccc(CC)o3)C[C@@]1([H])O[C@@H](c1nnc(C)[nH]1)C2` | -17.31% |
| 18 | `O=C(O)C(F)(F)F.[H][C@@]12CCN(Cc3ccccc3)C[C@]1([H])[C@H](C(=O)N(C)C)CCO2` | -5.862% |
| 19 | `CN(C)C(=O)Cc1nc(CN2CCCCC2Cn2cccn2)cs1` (stereo not given) | 6.201% |
| 20 | `Cc1nn(C)c(C)c1-c1cnc(CC2CCNC2)cn1` (stereo not given) | 10.08% |
| 21 | `CC(C)N(C)S(=O)(=O)N(C)Cc1ccc2c(c1)OCO2` | 8.504% |
| 22 | `CCc1cc(N2CCC(Nc3ccc(Cl)cn3)CC2)ncn1` | -7.895% |
| 23 | `Cc1occc1C(=O)N1CCC2(CCCN(CC3CCC3)C2=O)C1` (stereo not given) | -21.5% |
| 24 | `Cn1cc(C2CCCN2Cc2csc(C3CCCC3)n2)cn1` (stereo not given) | 6.408% |
| 25 | `Cc1cc(C)c2nc(CN3CCC(N4CCOCC4)CC3)cc(O)c2c1` | 0.1103% |
| 26 | `O=C(O)C(F)(F)F.O=C(c1cnccn1)N1CCCC2(CCN(Cc3ccsc3)CC2)C1` | 5.396% |
| 27 | `O=S(=O)(c1cccs1)N1CCCCC1c1ccn[nH]1` (stereo not given) | 6.695% |
| 28 | `Cc1cnn(CC2CN(Cc3nc4ccccc4s3)CCO2)c1` (stereo not given) | 55.85% & 70.99% & 46.92% |
| 29 | `NC(=O)c1cn[nH]c1C1CCCN1C(=O)c1ccccc1` (stereo not given) | -3.133% |
| 30 | `O=C(CCNc1ncccn1)NCc1ccc(Br)s1` | -18.51% |
| 31 | `CCN1CCOC(CNCc2ccc(OC)c(F)c2)C1` (stereo not given) | -9.33% |
| 32 | `CC(C)NC(=O)c1ccc2c(c1)nc1n2CCN(C(C)C)C1` | -5.921% |
| 33 | `CNC(=O)CN1CCCC(Cc2ccccc2OC)C1` (stereo not given) | -6.689% |
| 34 | `O=c1cc(-c2ccc(F)cc2)nc2n1CCCCC2` | -7.234% |
| 35 | `CN(CCCc1cc(-c2cccc(F)c2)n[nH]1)C(=O)CCn1cncn1` | 4.973% |
| 36 | `CC1(C)Cc2ccccc2-c2nc(NCCCO)[nH]c(=O)c21` | 0.8174% |
| 37 | `O=C(O)C(F)(F)F.O=C(c1cc[nH]n1)N1CCC2(CC1)CC(Oc1cccnc1)CO2` (stereo not given) | -23.14% |
| 38 | `CCOCC1CC2(CCN(C(=O)c3ccccn3)CC2)CO1.O=C(O)C(F)(F)F` (stereo not given) | 1.454% |
| 39 | `Cc1cccc2c(CCNS(=O)(=O)C3CCOC3)c[nH]c12` (stereo not given) | 17.02% |
| 40 | `Cc1cc(C)n(C(=O)Cn2nc(C)c(I)c2C)n1` | -1.053% |
| 41 | `O=C(NCc1ccc(Cl)s1)c1ccc(N2CCOC2=O)cc1` | 0.3337% |
| 42 | `CNC(=O)NC(=O)CN1CCC(c2c[nH]c3ccc(OC)cc23)CC1` | -8.369% |
| 43 | `Nc1cc(N2CCC(c3cc(Cc4ccccc4)n[nH]3)CC2)ccn1` | 31.75% & 34.49% & 29.53% |
| 44 | `COc1ccc(NC(=O)CCC(C)C)c(N2CCN(C(C)=O)CC2)n1` | -2.525% |
| 45 | `O=C(NC1CCc2c(ccc(=O)n2CC2CC2)C1)c1cscn1` (stereo not given) | 8.433% |
| 46 | `Cc1nn(C)c(C)c1NC(=O)CN1CCN(c2nccs2)C(C)C1` (stereo not given) | 5.709% |
| 47 | `O=C(c1cc2c(s1)CCOC2)N1CCCCC1Cn1cccn1` (stereo not given) | 4.731% |
| 48 | `Fc1cccc(CN2CCN(Cc3cscn3)CC2)c1` | 2.453% |
| 49 | `CCNC(=O)CCN1CCC(c2cc(N3CCOCC3)nc(C)n2)CC1` | -5.717% |
| 50 | `CNC(=O)c1cnc(/C=C/c2cc(OC)c(O)c(OC)c2)s1` | 2.744% |
| 51 | `CCCNC(=O)Nc1cccc2c1CCN(S(C)(=O)=O)C2` | -2.818% |
| 52 | `Cc1ccccc1-c1cncc(C2CCN(CCO)CC2)n1` | -0.1999% |
| 53 | `Cc1ccc([C@@H]2CN(C(=O)c3cc(C)n[nH]3)C[C@H]2NC(=O)C2CC2)cc1` | -10.92% |
| 54 | `N#Cc1ccc(CNC2CCN(CCc3ccncc3)CC2)cc1` | 2.012% |
| 55 | `O=C(O)C(F)(F)F.O=C(O)C(F)(F)F.[H][C@@]12C[C@H](C(=O)N(C)C)CN(Cc3ccc4ccccc4n3)[C@]1([H])CCO2` | 31.87% & 26.35% & 18.74% |
| 56 | `COC(=O)c1cc(C(=O)N2CCC(OC)CC2)n(-c2ccccc2)n1` | 4.005% |
| 57 | `CC(C)NC(=O)c1ccc2nnc(C3CN(C)CCN3C)n2c1.O=C(O)C(F)(F)F.O=C(O)C(F)(F)F` (stereo not given) | 0.8881% |
| 58 | `CC1CCCCN1Cc1nc(Cc2ccccc2)no1` (stereo not given) | -37.71% |
| 59 | `O=C(NCCc1ccn(-c2ccccc2)n1)N1CCCC(O)C1` (stereo not given) | 1.122% |
| 60 | `CC(=O)N1CCC(c2nc3ccc(C)cn3n2)CC1` | 10.87% |
| 61 | `Cc1cn(CC(=O)NC2CCN(C(=O)C3CC3)CC2)c2ccccc12` | 5.306% |
| 62 | `N#Cc1cccc(CS(=O)(=O)NCC(O)Cc2ccccc2)c1` (stereo not given) | 9.657% |
| 63 | `COCCc1ncc(CN2CCC(Oc3ccccc3C)CC2)cn1` | -18.14% |
| 64 | `COc1ccccc1OCCN(C)Cc1c(C2CC2)[nH]c2ncccc12` | 6.481% |
| 65 | `Cc1ncc(CNC(=O)CCOc2ccccc2)c(C2CCCN2C)n1` (stereo not given) | -18.84% |
| 66 | `Cc1cnn(C2CCCN(C(=O)CCc3cnn(C)c3)C2)c1` (stereo not given) | 11.45% |
| 67 | `CNC(=O)CNC(=O)c1ccc(-c2scnc2C)nc1` | 1.458% |
| 68 | `Cc1cc(CN2CCCC2c2noc(C3CC3)n2)c2ccccc2n1` (stereo not given) | 21.17% & 21.61% & -3.759% |
| 69 | `CCN1CCC2(CCC(=O)N2Cc2cccc(C)n2)CC1.O=C(O)C(F)(F)F.O=C(O)C(F)(F)F` | 21.51% |

Repeated from the top, 7 entries:

* CC(C)(C)OC(=O)NC1(c2noc(-c3ccoc3)n2)CCC1 | -15.68%
* CCc1c(C(=O)N2CCC(CC(N)=O)CC2)cnn1C(C)(C)C | 25.4%
* Cc1nc(N2CCCC2)nc2c1CN(C(=O)NC(C)C)CC2 | 4.513%
* Cc1cnc(CN2CCN(C(C)c3nc(C)no3)CC2)cn1 (stereo not given) | -21.03%
* O=C(O)CCNC(=O)N1CCc2c([nH]c3ccc(Cl)cc23)C1 | -34.22% & -28.29%
* [H][C@@]12C[C@@H](c3nc(C)no3)O[C@]1([H])CN(S(=O)(=O)c1cccc(C)c1)C2 | 5.736%
* CCn1c(C)cc(C(=O)N2C[C@@H](C(=O)O)[C@H](c3ccccc3)C2)c1C | -4.63% & -0.302%